For two molecules, binding results are on record in publication PMC4264851.

Experiment [1] concerns the target T1, Utp15-FLAG (S. cerevisiae) (UniProt Q04305).
T1 sequence: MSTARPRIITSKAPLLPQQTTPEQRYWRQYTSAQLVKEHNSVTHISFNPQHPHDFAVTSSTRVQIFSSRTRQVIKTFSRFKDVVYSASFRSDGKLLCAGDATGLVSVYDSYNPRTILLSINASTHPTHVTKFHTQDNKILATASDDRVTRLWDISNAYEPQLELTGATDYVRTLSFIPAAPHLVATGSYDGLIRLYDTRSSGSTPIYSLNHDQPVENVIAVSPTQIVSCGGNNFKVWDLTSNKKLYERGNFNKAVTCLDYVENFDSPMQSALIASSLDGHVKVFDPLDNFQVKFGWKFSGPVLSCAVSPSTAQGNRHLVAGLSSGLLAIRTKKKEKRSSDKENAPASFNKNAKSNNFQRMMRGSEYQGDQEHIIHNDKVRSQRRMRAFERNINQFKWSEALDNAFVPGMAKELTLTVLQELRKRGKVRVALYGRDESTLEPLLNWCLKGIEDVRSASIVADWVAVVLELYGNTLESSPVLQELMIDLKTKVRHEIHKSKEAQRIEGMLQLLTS
Briefly: affinity purification with mass spectrometry; only Utp5 and Utp15-FLAG co-expressed in SF21 cells (bacmid K2124); one-step anti-FLAG purification, FLAG peptide elution; SDS-PAGE and MS.

For experiment [2], the target named is T2, Utp4-TAP (S. cerevisiae) (UniProt Q06679).
T2 sequence: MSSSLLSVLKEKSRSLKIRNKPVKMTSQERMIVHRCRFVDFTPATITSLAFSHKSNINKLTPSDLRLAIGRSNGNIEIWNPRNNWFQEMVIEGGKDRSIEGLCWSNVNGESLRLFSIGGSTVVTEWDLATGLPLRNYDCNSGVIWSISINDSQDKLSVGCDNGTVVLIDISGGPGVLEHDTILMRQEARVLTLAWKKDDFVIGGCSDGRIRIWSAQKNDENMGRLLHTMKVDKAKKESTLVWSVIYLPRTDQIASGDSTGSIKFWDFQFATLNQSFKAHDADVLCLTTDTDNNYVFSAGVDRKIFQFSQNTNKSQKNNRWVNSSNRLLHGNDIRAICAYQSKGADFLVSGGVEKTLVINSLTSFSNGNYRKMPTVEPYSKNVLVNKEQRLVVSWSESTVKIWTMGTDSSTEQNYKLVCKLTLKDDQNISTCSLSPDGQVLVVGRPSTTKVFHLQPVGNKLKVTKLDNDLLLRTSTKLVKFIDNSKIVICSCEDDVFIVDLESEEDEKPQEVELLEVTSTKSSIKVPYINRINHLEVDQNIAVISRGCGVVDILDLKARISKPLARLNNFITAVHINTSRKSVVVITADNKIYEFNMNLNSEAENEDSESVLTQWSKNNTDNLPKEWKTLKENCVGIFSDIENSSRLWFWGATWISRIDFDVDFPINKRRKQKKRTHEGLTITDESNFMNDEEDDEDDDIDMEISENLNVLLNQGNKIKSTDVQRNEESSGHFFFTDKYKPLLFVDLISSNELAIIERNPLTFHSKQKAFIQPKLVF
Briefly: affinity purification with mass spectrometry; only Utp4-TAP and Utp5 co-expressed in SF21 cells (bacmid K1721); one-step, bait Utp4-TAP on IgG-coupled beads, TEV elution; SDS-PAGE and MS.

In experiment [3] the target is T2, Utp4-TAP (S. cerevisiae). Briefly: affinity purification with mass spectrometry; only Utp4-TAP, Utp5 and Utp15-FLAG co-expressed in SF21 cells (bacmid K2209); one-step, bait Utp4-TAP on IgG-coupled beads, TEV elution; SDS-PAGE and MS.
In experiment [4] the target is T3, Nan1-HA (S. cerevisiae) (UniProt Q02931).
T3 sequence: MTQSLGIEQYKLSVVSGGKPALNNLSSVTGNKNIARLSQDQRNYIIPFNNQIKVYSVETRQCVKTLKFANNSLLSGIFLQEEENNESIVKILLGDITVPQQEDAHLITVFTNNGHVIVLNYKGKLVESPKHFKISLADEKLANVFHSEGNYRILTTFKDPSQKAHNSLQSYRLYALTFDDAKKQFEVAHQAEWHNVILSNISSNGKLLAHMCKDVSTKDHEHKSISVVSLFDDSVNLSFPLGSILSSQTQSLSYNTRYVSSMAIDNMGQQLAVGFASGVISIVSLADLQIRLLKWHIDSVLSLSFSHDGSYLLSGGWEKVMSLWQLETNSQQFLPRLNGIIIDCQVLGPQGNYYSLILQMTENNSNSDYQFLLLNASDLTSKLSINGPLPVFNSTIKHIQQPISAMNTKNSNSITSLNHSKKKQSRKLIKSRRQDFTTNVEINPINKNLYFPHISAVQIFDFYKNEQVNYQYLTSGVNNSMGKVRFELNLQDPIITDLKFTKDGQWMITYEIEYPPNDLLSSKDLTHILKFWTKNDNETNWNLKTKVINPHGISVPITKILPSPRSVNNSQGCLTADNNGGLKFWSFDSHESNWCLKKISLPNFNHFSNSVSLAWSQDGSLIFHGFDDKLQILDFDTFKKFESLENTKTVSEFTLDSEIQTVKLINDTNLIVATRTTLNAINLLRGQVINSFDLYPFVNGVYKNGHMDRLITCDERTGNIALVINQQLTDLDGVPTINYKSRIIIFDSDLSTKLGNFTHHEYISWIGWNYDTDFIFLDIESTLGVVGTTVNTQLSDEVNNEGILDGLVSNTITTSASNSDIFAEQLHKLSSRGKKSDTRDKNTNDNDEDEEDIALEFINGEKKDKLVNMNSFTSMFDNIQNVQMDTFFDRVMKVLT
Briefly: affinity purification with mass spectrometry; bacmid K2000 (all seven tUTP candidates); two-step: anti-FLAG eluate (Utp15-FLAG) purified again on anti-HA affinity matrix with Nan1-HA as bait, HA peptide elution; SDS-PAGE, Coomassie, MS of bands.

The target of experiment [5] is T2, Utp4-TAP (S. cerevisiae). Briefly: affinity purification with mass spectrometry; Utp4-TAP, Utp5, Utp8, Utp9 and Utp15-FLAG co-expressed in SF21 cells (bacmid K2123), without Nan1 and Utp10; one-step, bait Utp4-TAP on IgG Sepharose, TEV elution; SDS-PAGE, Coomassie, MS of bands.
For experiment [6], the target named is T1, Utp15-FLAG (S. cerevisiae). Briefly: affinity purification with mass spectrometry; bacmid K2123 (five pentamer proteins); two-step: IgG Sepharose/TEV eluate (Utp4-TAP) purified again on anti-FLAG affinity matrix with Utp15-FLAG as bait, FLAG peptide elution; SDS-PAGE, Coomassie, MS of bands.
Experiment [7] addresses T1, Utp15-FLAG (S. cerevisiae). Briefly: affinity purification with mass spectrometry; Utp4, Utp5, Utp8, Utp9, Utp10, Utp15-FLAG and Nan1-HA co-expressed in SF21 cells (bacmid K2000); one-step, bait Utp15-FLAG on anti-FLAG affinity matrix, lysate cleared by low-speed centrifugation, buffer A100+ (20 mM Tris-HCl pH 8, 100 mM KCl, 5 mM Mg(OAc)2, 0.5% Triton X-100, 0.1% Tween-20), 4°C, FLAG peptide elution; SDS-PAGE, Coomassie, MS of bands.

The target of experiment [8] is T4, Utp8-FLAG (S. cerevisiae) (UniProt P53276).
T4 sequence: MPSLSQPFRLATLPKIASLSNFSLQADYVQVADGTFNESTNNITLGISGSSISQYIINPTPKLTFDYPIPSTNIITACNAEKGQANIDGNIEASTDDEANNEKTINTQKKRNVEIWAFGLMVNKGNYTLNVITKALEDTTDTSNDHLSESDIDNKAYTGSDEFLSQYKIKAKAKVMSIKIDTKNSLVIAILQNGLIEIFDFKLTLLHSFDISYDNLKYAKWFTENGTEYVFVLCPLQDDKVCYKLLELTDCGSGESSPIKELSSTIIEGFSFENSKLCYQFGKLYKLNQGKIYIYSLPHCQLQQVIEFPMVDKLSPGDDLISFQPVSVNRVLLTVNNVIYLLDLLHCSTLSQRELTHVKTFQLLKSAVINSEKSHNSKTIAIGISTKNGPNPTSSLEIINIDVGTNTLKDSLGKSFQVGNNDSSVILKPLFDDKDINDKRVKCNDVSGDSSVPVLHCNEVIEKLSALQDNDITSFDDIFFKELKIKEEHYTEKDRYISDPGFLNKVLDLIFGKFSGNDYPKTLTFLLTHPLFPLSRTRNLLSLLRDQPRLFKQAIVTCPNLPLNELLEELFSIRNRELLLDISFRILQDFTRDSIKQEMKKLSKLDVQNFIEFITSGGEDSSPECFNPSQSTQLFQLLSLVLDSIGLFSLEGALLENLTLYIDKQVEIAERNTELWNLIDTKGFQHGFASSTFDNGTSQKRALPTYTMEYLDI
Briefly: affinity purification with mass spectrometry; only Utp8-FLAG and Utp9 co-expressed in SF21 cells (bacmid K2204); one-step anti-FLAG purification, FLAG peptide elution; SDS-PAGE and MS.

No constants are given. Whether binding was seen depends on the method and setting. In cells and extracts the contact can be indirect. Here binding means that the protein was enriched with, or labelled near, the bait; the list need not be complete. For part of these data: Tags and fused reporters may be left off the sequences shown.

B1: Utp5 (protein, UniProt Q04177 1-643)
chain: MDSPVLQSAYDPSGQYLCYVTVALDKQRVGVQPTQRATSSGVDTVWNENFLYLEDSKLKVTCLKWVNLASSDTVAIILGMNNGEIWLYSVLANEVTYKFTTGNSYEIKDIDLMGNQLWCIDSSDAFYQFDLLQFKLLQHFRINNCVQLNKLTIVPAGDSVAQLLVASHSISLIDIEEKKVVMTFPGHVSPVSTLQVITNEFFISGAEGDRFLNVYDIHSGMTKCVLVAESDIKELSHSGQADSIAVTTEDGSLEIFVDPLVSSSTKKRGNKSKKSSKKIQIVSKDGRKVPIYNAFINKDLLNVSWLQNATMPYFKNLQWREIPNEYTVEISLNWNNKNKSADRDLHGKDLASATNYVEGNARVTSGDNFKHVDDAIKSWERELTSLEQEQAKPPQANELLTETFGDKLESSTVARISGKKTNLKGSNLKTATTTGTVTVILSQALQSNDHSLLETVLNNRDERVIRDTIFRLKPALAVILLERLAERIARQTHRQGPLNVWVKWCLIIHGGYLVSIPNLMSTLSSLHSTLKRRSDLLPRLLALDARLDCTINKFKTLNYEAGDIHSSEPVVEEDEDDVEYNEELDDAGLIEDGEESYGSEEEEEGDSDNEEEQKHTSSKQDGRLETEQSDGEEEAGYSDVEME
Take B1: the binding result is “binds” in experiment [1]; “binds” in experiment [2]; “binds” in experiment [3]; “binds weakly” in experiment [4]; “binds” in experiment [5]; “binds” in experiment [6]. Also, the binding entry in experiment [7] is given as “binds”.

B2: Utp9 (protein, UniProt P38882 1-575)
chain: MGSSLDLVASFSHDSTRFAFQASVAQKNNVDIYPLNETKDYVVNSSLVSHIDYETNDMKVSDVIFFGWCSDLIDTQSSNIKRKLDEDEGTGESSEQRCENFFVNGFPDGRIVVYSSNGKDIVNIIKNKKEILGADTDESDIWILDSDKVVKKLQYNNSKPLKTFTLVDGKDDEIVHFQILHQNGTLLVCIITKQMVYIVDPSKRRPSTKYSFEISDAVACEFSSDGKYLLIANNEELIAYDLKEDSKLIQSWPVQVKTLKTLDDLIMALTTDGKINNYKIGEADKVCSIVVNEDLEIIDFTPINSKQQVLISWLNVNEPNFESISLKEIETQGYITINKNEKNNADEADQKKLEEKEEEAQPEVQHEKKETETKINKKVSKSDQVEIANILSSHLEANSTEILDDLMSGSWTEPEIKKFILTKINTVDHLSKIFLTISKSITQNPWNEENLLPLWLKWLLTLKSGELNSIKDKHTKKNCKHLKSALRSSEEILPVLLGIQGRLEMLRRQAKLREDLAQLSMQEGEDDEIEVIEHSNVISNPLQDQASPVEKLEPDSIVYANGESDEFVDASEYKD
In the case of B2, the binding result in experiment [8] is recorded as “binds”; in experiment [4], “binds weakly”; in experiment [5], “binds”; in experiment [6], “binds”; in experiment [7], “binds”.
